Source: the supplement of paper PMC6078165
The reference is the same well before dosing, and untreated signal decays as well.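 Fibroblast labels name human fibroblasts: mostly primary ones from tissues such as uterus (C12385, HUF), lung (H6013), bone (Hs27A), adrenal (HADF) and skin (WS1), plus mammary HMF and breast cancer-associated Hs343T. The cancer cells are basal-like or mesenchymal-like triple-negative breast cancer lines. The paper calls a changed response a hit when it shifts by more than 3x the replicate standard deviation. The tissue of the other fibroblasts is not given here.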

Test system: MDAMB231
Assay: relative JC-1 red fluorescence (viability) vs pre-drug, coculture with fibroblast (fraction); higher = more viable cancer cells
Procedure: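 JC-1 labelled TNBC cells cocultured 1:1 (1,500 cells each) with CellTrace Violet stained primary or stromal fibroblasts in 384-well plates in FluoroBrite medium, treated with one of 42 anticancer drugs at 0.1, 1, 10 or 100 uM. JC-1 red fluorescence (mitochondrial integrity in cancer cells only) was read by plate reader every 8 h for 72 h. Values are normalised to each well's pre-drug value. The stock of one drug was tenfold lower, so its dose labels may be too high.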

CO[C@H]1C[C@@H]2CC[C@@H](C)[C@@](O)(O2)C(=O)C(=O)N2CCCC[C@H]2C(=O)O[C@H]([C@H](C)C[C@@H]2CC[C@@H](OCCO)[C@H](OC)C2)CC(=O)[C@H](C)/C=C(\C)[C@@H](O)[C@@H](OC)C(=O)[C@H](C)C[C@H](C)/C=C/C=C/C=C/1C [Everolimus]
relative JC-1 red fluorescence
Details | 8 h | 16 h | 24 h | 32 h | 40 h | 48 h | 56 h | 64 h | 72 h
0.1 µM, coculture fibroblast: C12385 | 0.805 | 0.756 | 0.6727 | 0.6747 | 0.6204 | 0.59 | 0.559 | 0.564 | 0.532
0.1 µM, coculture fibroblast: H6013 | 0.873 | 0.807 | 0.758 | 0.7591 | 0.738 | 0.717 | 0.704 | 0.691 | 0.662
0.1 µM, coculture fibroblast: H6019 | 0.7627 | 0.714 | 0.651 | 0.642 | 0.611 | 0.59 | 0.566 | 0.566 | 0.543
0.1 µM, coculture fibroblast: H6076 | 0.8479 | 0.766 | 0.719 | 0.6897 | 0.6617 | 0.631 | 0.616 | 0.606 | 0.602
0.1 µM, coculture fibroblast: H6231 | 0.948 | 0.856 | 0.775 | 0.722 | 0.682 | 0.654 | 0.621 | 0.601 | 0.578
0.1 µM, coculture fibroblast: HADF | 0.86 | 0.824 | 0.773 | 0.749 | 0.713 | 0.655 | 0.6618 | 0.643 | 0.609
0.1 µM, coculture fibroblast: HCFa | 0.8904 | 0.83 | 0.7844 | 0.7565 | 0.7117 | 0.6732 | 0.658 | 0.63 | 0.592
0.1 µM, coculture fibroblast: HCPF | 0.894 | 0.78 | 0.71 | 0.678 | 0.623 | 0.581 | 0.546 | 0.52 | 0.498
0.1 µM, coculture fibroblast: HHSteC | 0.859 | 0.906 | 0.841 | 0.799 | 0.761 | 0.723 | 0.695 | 0.667 | 0.637
0.1 µM, coculture fibroblast: HMF | 0.883 | 0.798 | 0.72021 | 0.686 | 0.64 | 0.601 | 0.562 | 0.545 | 0.524
0.1 µM, coculture fibroblast: HPFa | 0.9438 | 0.89 | 0.833 | 0.7808 | 0.7681 | 0.7298 | 0.6938 | 0.6741 | 0.637
0.1 µM, coculture fibroblast: HUF | 0.837 | 0.703 | 0.708 | 0.6 | 0.543 | 0.525 | 0.483 | 0.489 | 0.469
0.1 µM, coculture fibroblast: Hs5 | 0.923 | 0.853 | 0.799 | 0.755 | 0.711 | 0.664 | 0.627 | 0.591 | 0.566
0.1 µM, coculture fibroblast: Hs27A | 0.87 | 0.797 | 0.746 | 0.729 | 0.6747 | 0.601 | 0.6215 | 0.607 | 0.581
0.1 µM, coculture fibroblast: Hs343T | 0.839 | 0.706 | 0.639 | 0.6123 | 0.571 | 0.522 | 0.479 | 0.459 | 0.444
0.1 µM, coculture fibroblast: WS1 | 0.765 | 0.713 | 0.655 | 0.632 | 0.585 | 0.572 | 0.527 | 0.529 | 0.512
1 µM, coculture fibroblast: C12385 | 0.763 | 0.794 | 0.677 | 0.707 | 0.667 | 0.649 | 0.613 | 0.607 | 0.592
1 µM, coculture fibroblast: H6013 | 0.923 | 0.866 | 0.84 | 0.844 | 0.805 | 0.791 | 0.791 | 0.773 | 0.75
1 µM, coculture fibroblast: H6019 | 0.734 | 0.646 | 0.653 | 0.597 | 0.562 | 0.572 | 0.5344 | 0.548 | 0.517
1 µM, coculture fibroblast: H6076 | 0.911 | 0.855 | 0.754 | 0.885 | 0.846 | 0.822 | 0.807 | 0.802 | 0.801
1 µM, coculture fibroblast: H6231 | 0.92234 | 0.8432 | 0.798 | 0.7527 | 0.7039 | 0.68376 | 0.652 | 0.636 | 0.61301
1 µM, coculture fibroblast: HADF | 0.884 | 0.855 | 0.813 | 0.79 | 0.762 | 0.723 | 0.718 | 0.702 | 0.655
1 µM, coculture fibroblast: HCFa | 0.916 | 0.841 | 0.8263 | 0.8103 | 0.7761 | 0.71776 | 0.7009 | 0.676 | 0.65
1 µM, coculture fibroblast: HCPF | 0.84 | 0.808 | 0.84 | 0.818 | 0.764 | 0.72 | 0.677 | 0.637 | 0.609
1 µM, coculture fibroblast: HHSteC | 0.9257 | 0.865 | 0.84 | 0.822 | 0.803 | 0.782 | 0.752 | 0.741 | 0.711
1 µM, coculture fibroblast: HMF | 0.923 | 0.862 | 0.8115 | 0.782 | 0.742 | 0.71 | 0.6832 | 0.661 | 0.646
1 µM, coculture fibroblast: HPFa | 0.946 | 0.9018 | 0.847 | 0.8 | 0.78 | 0.74 | 0.705 | 0.689 | 0.649
1 µM, coculture fibroblast: HUF | 0.8051 | 0.717 | 0.719 | 0.623 | 0.566 | 0.547 | 0.502 | 0.497 | 0.472
1 µM, coculture fibroblast: Hs5 | 0.931 | 0.866 | 0.839 | 0.809 | 0.773 | 0.74 | 0.717 | 0.698 | 0.685
1 µM, coculture fibroblast: Hs27A | 0.829 | 0.792 | 0.77 | 0.768 | 0.743 | 0.728 | 0.735 | 0.741 | 0.704
1 µM, coculture fibroblast: Hs343T | 0.888 | 0.807 | 0.758 | 0.729 | 0.686 | 0.647 | 0.599 | 0.583 | 0.554
1 µM, coculture fibroblast: WS1 | 0.748 | 0.706 | 0.6896 | 0.627 | 0.593 | 0.583 | 0.549 | 0.556 | 0.544
